# Experimental data: PubChem BioAssay AID1259424 (University of Nebraska Medical Center, 2018)
# Purpose: 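Seek colon cancer survival genes behaving like KSR1, using a six-gene signature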 (primary screen)
# Cell system: human HCT116 colon cancer cells
# Knock-down reagent: siRNA pool against human genes, 50 nM
# Measured: 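Log2 levels of six mRNAs (branched-DNA multiplex), adjusted by two reference genes and the non-targeting median, then scored against the average KSR1 knockdown pattern as Pearson r and euclidean distance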
# Scale: mean correlation with KSR1 profile: higher = expression change more like KSR1 knockdown; mean distance from KSR1 profile: higher = expression change less like KSR1 knockdown
# The deposit covers about 14,000 reagents; shown is a part drawn at random. 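Higher correlation or smaller distance means closer resemblance to KSR1 loss; control wells, including KSR1 knockdowns, recur on many plates.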 The numbers tell different reagents against one gene apart. Not all columns of the deposit are shown. No sequences are given here. Not stated in the record: the time to read-out.
target gene,reagent no.,mean correlation with KSR1 profile,mean distance from KSR1 profile
ZDHHC9 (zDHHC palmitoyltransferase 9),1,0.552,0.703
KRT4 (keratin 4),1,-0.621,2.02
TASL (TLR adaptor interacting with endolysosomal SLC15A4),1,0.411,1.6
MYO5B (myosin VB),1,0.0225,1.19
GPLD1 (glycosylphosphatidylinositol specific phospholipase D1),1,-0.00556,2.04
AFF3 (ALF transcription elongation factor 3),1,0.272,2.87
NCAPH2 (non-SMC condensin II complex subunit H2),1,-0.345,1.59
"FAM86C1P (family with sequence similarity 86 member C1, pseudogene)",1,0.434,2.15
ICAM3 (intercellular adhesion molecule 3),1,-0.484,2.5
CATSPER1 (cation channel sperm associated 1),1,-0.115,1.42
MINDY4 (MINDY lysine 48 deubiquitinase 4),1,0.293,2.64
RBM12 (RNA binding motif protein 12),1,-0.0263,1.82
UBXN6 (UBX domain protein 6),1,0.331,2.45
AXIN2 (axin 2),1,0.0849,1.41
COQ9 (coenzyme Q9),1,-0.103,1.89
HAMP (hepcidin antimicrobial peptide),1,-0.204,3.82
AVPR2 (arginine vasopressin receptor 2),1,0.23,3.3
RPL10A (ribosomal protein L10a),1,-0.0203,4.23
GIT1 (GIT ArfGAP 1),1,0.552,2.83
ZNF514 (zinc finger protein 514),1,0.447,1.88
PTK2 (protein tyrosine kinase 2),1,0.616,2.4
PPP2R3A (protein phosphatase 2 regulatory subunit B''alpha),1,0.177,1.85

Continued (7 carried over from the part before).
target gene,reagent no.,mean correlation with KSR1 profile,mean distance from KSR1 profile
HAMP (hepcidin antimicrobial peptide),1,-0.204,3.82
AVPR2 (arginine vasopressin receptor 2),1,0.23,3.3
RPL10A (ribosomal protein L10a),1,-0.0203,4.23
GIT1 (GIT ArfGAP 1),1,0.552,2.83
ZNF514 (zinc finger protein 514),1,0.447,1.88
PTK2 (protein tyrosine kinase 2),1,0.616,2.4
PPP2R3A (protein phosphatase 2 regulatory subunit B''alpha),1,0.177,1.85
SMR3B (submaxillary gland androgen regulated protein 3B),1,-0.38,4.04
PIP5K1C (phosphatidylinositol-4-phosphate 5-kinase type 1 gamma),1,-0.583,1.79
ALDH3B1 (aldehyde dehydrogenase 3 family member B1),1,-0.192,3.98
SPDEF (SAM pointed domain containing ETS transcription factor),1,0.559,4.52
NPR3 (natriuretic peptide receptor 3),1,0.573,2.74
NPR3 (natriuretic peptide receptor 3),2,0.705,1.04
NOC4L (nucleolar complex associated 4 homolog),1,-0.758,2.35
DNMT3B (DNA methyltransferase 3 beta),1,-0.466,4.44
NSD1 (nuclear receptor binding SET domain protein 1),1,-0.131,1.52
NCAPG (non-SMC condensin I complex subunit G),1,-0.347,2.11
OBI1 (ORC ubiquitin ligase 1),1,0.559,1.37
CCL22 (C-C motif chemokine ligand 22),1,-0.42,2.68
AP2B1 (adaptor related protein complex 2 subunit beta 1),1,-0.744,2.26
MYO1G (myosin IG),1,0.15,1.72
XKR8 (XK related 8),1,-0.269,2.82
TRMT61B (tRNA methyltransferase 61B),1,-0.84,5.78
ZNF613 (zinc finger protein 613),1,-0.105,2.53
EPAS1 (endothelial PAS domain protein 1),1,-0.496,1.28
CACHD1 (cache domain containing 1),1,0.221,0.934
SMPD4 (sphingomyelin phosphodiesterase 4),1,-0.44,2.03
LSM5,1,-0.391,2.61
POLH (DNA polymerase eta),1,-0.117,3.06
GNL3LP1 (G protein nucleolar 3 like pseudogene 1),1,0.794,1.26
VASH2 (vasohibin 2),1,-0.238,2.75
SLC20A1,1,0.485,2.11
PDHB (pyruvate dehydrogenase E1 subunit beta),1,-0.227,1.64
TMEM87A (transmembrane protein 87A),1,-0.0799,1.78
MCTP2 (multiple C2 and transmembrane domain containing 2),1,-0.0193,2.26
